Source: publication PMC7819943, “Rice protein-binding microarrays: a tool to detect cis-acting elements near promoter regions in rice”
This is one part of the list.

By UniProt entry, the sequences of proteins in these tests, tags left out.
UniProt Q0JBA9, entry or part of it: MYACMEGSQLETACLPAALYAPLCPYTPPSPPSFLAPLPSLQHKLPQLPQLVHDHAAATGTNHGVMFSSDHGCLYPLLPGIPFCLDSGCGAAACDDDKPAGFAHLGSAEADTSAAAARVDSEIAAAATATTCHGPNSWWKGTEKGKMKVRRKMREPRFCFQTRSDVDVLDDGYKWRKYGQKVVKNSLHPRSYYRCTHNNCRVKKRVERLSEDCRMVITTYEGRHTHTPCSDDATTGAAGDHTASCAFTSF

These sequences were tested against OsWRKY34 (Oryza sativa, UniProt Q0JBA9 1-250) (assay: protein-binding microarray (RPBM); PBS, 2% BSA, 51.3 ng/ul salmon testes DNA, 50 uM zinc acetate, 200 nM TF, 25 C, 1 h; high values mean tight binding). Settings: protein: recombinant; tags: N-terminal polyhistidine and DsRed monomer fusion (pET32a); label: CyDye5-dUTP incorporated in the synthesized complementary strand; 3' TTTTT single-stranded linker to array surface; dsDNA, one strand shown.
In short: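 For the binding signal, per-feature fluorescence intensity was read in arbitrary units on an Axon 4000B scanner. Before scanning, a 2% BSA-blocked custom Agilent array made double-stranded with Cy5-dUTP was washed after 1 h at 25 °C with 200 nM protein and 50 µM zinc acetate. The proteins were Ni–NTA-purified transcription factors with N-terminal polyhistidine and DsRed fusions, expressed in E. coli BL21-CodonPlus.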

Sequence | binding signal
TCCTCATTGAACCATTCCGCCTCGCTCCCAGCTCCATTACCGGAGTCACCTAGTGCAG | 11300 fluorescence intensity (a.u.)
CTCCATTCTTGTTTGTTCCTTCTTTGCTTTCAGCTGCTTTCGGAGTCACCTAGTGCAG | 15000 fluorescence intensity (a.u.)
TACAGCCTTACTACTTCTTTATAATCTCCACGAAAGAACACGGAGTCACCTAGTGCAG | 8060 fluorescence intensity (a.u.)
TGCTTCGCATTTTGTTGCGTTGTTGCTGTTTTTTTTTTCGCGGAGTCACCTAGTGCAG | 8320 fluorescence intensity (a.u.)
TTAGTTAATCATTGTTGTTCTATATATCTTTTCTTTATTTCGGAGTCACCTAGTGCAG | 8580 fluorescence intensity (a.u.)
ACACATCCTATTACAGAATCTGGATATACATCTGTCCAAACGGAGTCACCTAGTGCAG | 8110 fluorescence intensity (a.u.)
AAAATCTTGGTCTCAAGCCTTCCATGATGCTGTCATATCTCGGAGTCACCTAGTGCAG | 9660 fluorescence intensity (a.u.)
AACCCACCTCTTTCGTTTTCCGCGCGTACGCTTTTCAAACCGGAGTCACCTAGTGCAG | 8710 fluorescence intensity (a.u.)
TCGACGATTCTCAGCCCAGAAAGCCTGCTACAGTACTACACGGAGTCACCTAGTGCAG | 8280 fluorescence intensity (a.u.)
TCCTATCGCTCGATCGCCTCGCCTCGCGTCCCCGCGATTTCGGAGTCACCTAGTGCAG | 10400 fluorescence intensity (a.u.)
CTCTCGATCCGGCTTCTTTCAGCTTACGTCCCCGTCACCACGGAGTCACCTAGTGCAG | 10600 fluorescence intensity (a.u.)
GCAGTTTGCTTTTGCTCCACCCACCACCACCGCTGCTTCCCGGAGTCACCTAGTGCAG | 11400 fluorescence intensity (a.u.)
TTATTTTCCTAATGCACTCATCTTTGACTTAACTGCACCCCGGAGTCACCTAGTGCAG | 10800 fluorescence intensity (a.u.)
ACGTGTAACTACTGTGTTTGCAGATATGGATGGGTTGGTTCGGAGTCACCTAGTGCAG | 10300 fluorescence intensity (a.u.)
ATGTTTAATTCATGGGTGCATTCTTGTTTCTTAGGGATCACGGAGTCACCTAGTGCAG | 8850 fluorescence intensity (a.u.)
AAACCATGTCCTACAGCTACCTGTTTTGATCTTCTTGGTTCGGAGTCACCTAGTGCAG | 11200 fluorescence intensity (a.u.)
TCTTCCTATTACCTCTCTCATCCTCTCCATCTCTCTAGTTCGGAGTCACCTAGTGCAG | 8400 fluorescence intensity (a.u.)
GCCTGAACCTGTCTAAATCCTTTGTCTCCACATCCATCCACGGAGTCACCTAGTGCAG | 9080 fluorescence intensity (a.u.)
CCGATATGACACCTAAAAATTTTCATTTCAGCAACCCTTACGGAGTCACCTAGTGCAG | 8350 fluorescence intensity (a.u.)
GTAATCTATGAGTATACCTTTCCTAATCGTTCACGCCCTTCGGAGTCACCTAGTGCAG | 8540 fluorescence intensity (a.u.)
GTGCTCTCTGCTGGCTGCGACGCCATATATGCCTTTCTTCCGGAGTCACCTAGTGCAG | 8720 fluorescence intensity (a.u.)
ATGCGTGGGTTTTTCTTGTCCGTCTTAGTTCAAAACGGCCCGGAGTCACCTAGTGCAG | 13600 fluorescence intensity (a.u.)
TATGGTAGTGTTCTTGCTGTTTCCCGTAAAACAAGGTTCCCGGAGTCACCTAGTGCAG | 8230 fluorescence intensity (a.u.)
GAAGTGACCCGCACCCTTCTTTGCGACGAACCTGTCACTGCGGAGTCACCTAGTGCAG | 8030 fluorescence intensity (a.u.)
ATATTTTCCGCCTACCCTGTACGCACGTTTATATACACAACGGAGTCACCTAGTGCAG | 9400 fluorescence intensity (a.u.)
TTATCTCAGCCGCTTTGTTTGTTTCTTTCTTTCTTTCTCCCGGAGTCACCTAGTGCAG | 11100 fluorescence intensity (a.u.)
CATGCGTACGAGATTAGTTCCCATCTCCTTTATCCAAACTCGGAGTCACCTAGTGCAG | 8260 fluorescence intensity (a.u.)

Quoted from the listing:
TTATCTCAGCCGCTTTGTTTGTTTCTTTCTTTCTTTCTCCCGGAGTCACCTAGTGCAG | binding signal: 11100 fluorescence intensity (a.u.)
TGCTTCGCATTTTGTTGCGTTGTTGCTGTTTTTTTTTTCGCGGAGTCACCTAGTGCAG | binding signal: 8320 fluorescence intensity (a.u.)

(continued)

Sequence | binding signal
TCTTCCTTTTCTTCACTTGCGGTTTCTTTCTTTCTTTTTACGGAGTCACCTAGTGCAG | 9210 fluorescence intensity (a.u.)
CTACCAACCATCTGCTTCTCATAATCTTACACTCCCCAAACGGAGTCACCTAGTGCAG | 8340 fluorescence intensity (a.u.)
TCACCGACGATAGATCATTGACCTTTTGACCAAATGACCTCGGAGTCACCTAGTGCAG | 8550 fluorescence intensity (a.u.)
ACATGTTTGACCATTCGTCTTATTTAAAAATTTTATGCAACGGAGTCACCTAGTGCAG | 8030 fluorescence intensity (a.u.)
CAGGTTCACCATATTAATACCTACTATCCGTTATCAATTTCGGAGTCACCTAGTGCAG | 9720 fluorescence intensity (a.u.)
TAGGCATATAATTTTACATATTTCACAACAGTTTTTGAATCGGAGTCACCTAGTGCAG | 9430 fluorescence intensity (a.u.)
TTATTTTTTATTCTGAATTTTAATTAATCTCGTATTGGGTCGGAGTCACCTAGTGCAG | 8670 fluorescence intensity (a.u.)
GGCAATGTACAATTAGTTCTAATATCGTAATCATCGATGTCGGAGTCACCTAGTGCAG | 8250 fluorescence intensity (a.u.)
AAATAAGACGAACGATCAAACATAATTAAAAAAGTCAACGCGGAGTCACCTAGTGCAG | 9160 fluorescence intensity (a.u.)
GGCGAGCATCCGTTTGACATTTCTTGTCTTCATCAGTTTTCGGAGTCACCTAGTGCAG | 10700 fluorescence intensity (a.u.)
ACATCTCCCTTTCTATTATACTGTTGGTATTCAATATTTCCGGAGTCACCTAGTGCAG | 8450 fluorescence intensity (a.u.)
CGCTCCGACGACGACAAGCTGCCACTGCTCACTGCTCTCTCGGAGTCACCTAGTGCAG | 8260 fluorescence intensity (a.u.)
TTATTGTATTAATGTTCCTTTTATCCGTACCATTTCCGACCGGAGTCACCTAGTGCAG | 10600 fluorescence intensity (a.u.)
GGGGAGGTCAGTACATGGTTCAAAAGCACTATGGAGTTGCCGGAGTCACCTAGTGCAG | 8100 fluorescence intensity (a.u.)
ACCCATCCATCGCCAGCCATGCACACCCTCGCTCTGACGACGGAGTCACCTAGTGCAG | 8640 fluorescence intensity (a.u.)
TTACAAACAAAAACTCAAAATCCCTTATATTTTGGGACAGCGGAGTCACCTAGTGCAG | 64700 fluorescence intensity (a.u.)
CGGACCGGACCGGACCACCCGCTGCCACTATCAACCACCACGGAGTCACCTAGTGCAG | 10300 fluorescence intensity (a.u.)
GGTTTTTATGGGGTTGCTCTTTGATTTTTTTTTTCTCCTGCGGAGTCACCTAGTGCAG | 12200 fluorescence intensity (a.u.)
AGTTTTTGAAGGAACTTACTTTTCAGTTTTCCACGAGTCTCGGAGTCACCTAGTGCAG | 8910 fluorescence intensity (a.u.)
ACCGCCCCGCGTAGCCGCCGCCATCGTTTCTCCCCGACGCCGGAGTCACCTAGTGCAG | 8380 fluorescence intensity (a.u.)
TCGTCGGTTTCTCGAGCTTTCCGTTGATCTTGATGCGTTCCGGAGTCACCTAGTGCAG | 10500 fluorescence intensity (a.u.)
TTCATTCCCAAATGCCACCCGGGCCCACATGTCAGCCTCACGGAGTCACCTAGTGCAG | 9900 fluorescence intensity (a.u.)
ACTTCCGATGCGTAATAAGGCTTTAGTCCCACAACTGACGCGGAGTCACCTAGTGCAG | 8630 fluorescence intensity (a.u.)
CGCCGCCACTTCGCCCTCCGCTTCCGCCGCCGCCGCGCCGCGGAGTCACCTAGTGCAG | 12900 fluorescence intensity (a.u.)
ATGCATTTCTTTTAGGATTTGTGATGTATTTTTCGTTTGACGGAGTCACCTAGTGCAG | 9640 fluorescence intensity (a.u.)
CATTCCTGCGTTTTTTCTGTGTTTTGTAATCCTCTGTTTTCGGAGTCACCTAGTGCAG | 14100 fluorescence intensity (a.u.)
TTGATGCTTAGTGGCTACTGTGTTCTGTACTACCACCCAGCGGAGTCACCTAGTGCAG | 8120 fluorescence intensity (a.u.)
